Results taken from PubChem BioAssay AID1347075 (National Center for Advancing Translational Sciences (NCATS), 2019).
About 5,500 (1.4%) of roughly 400,000 compounds were called active. Inconclusive means that the source gave no clear call. Such entries were picked first, then a sample of the others. Calls follow the shape of the dose curve; as a rule, active = well fitted cell-killing curve with a large enough effect; inconclusive = small, poorly fitted or top-dose-only effect, or effect the other way; inactive = flat fitted curve, though single readings scatter. Where the call is inconclusive, the potency comes from a doubtful curve fit.

Test: qHTS assay for MDR1-selective chemotherapeutics: Primary screen using the parental adenocarcinoma cell KB-3-1; also: nearly all actives have a fitted effect of over 60% in size
Conditions: KB-3-1 viability, CellTiter-Glo ATP luminescence, 72 h; activity change, negative = cytotoxic: at 46.1 µM (top of the series)
Outline: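 Parental KB-3-1 viability, qHTS format: 72 h compound exposure, 37 °C; CellTiter-Glo; media-only wells and DMSO plates as controls; concentration-effect fits on corrected data.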
% is scaled to controls: 0 for no effect and ±100 for the full control effect; potency is read from the fitted curve at half-maximal effect.

SMILES	Potency	activity change, negative = cytotoxic
COC(=O)CC1C(=O)NCCN1C(=O)c1ccc(Cl)cc1 (centres undefined)	inactive	–
COc1cccc(-c2nnc3sc(C4CCCCC4)nn23)c1	inconclusive: 23.1 µM [cytotoxic, partial curve, poor fit]	–
Cn1c(/C=C/c2ccc(Cl)cc2)nc2ccccc2c1=O	inconclusive: 20.6 µM [cytotoxic, single point]	–
O=C(CSc1ncnc2c1oc1ccccc12)Nc1ccc2c(c1)OCCO2	inactive	–
CCCSc1nc2sc3c(c2c(=O)n1-c1ccc(OC)cc1)CCN(C)C3	inconclusive: 18.4 µM [cytotoxic, partial curve, poor fit]	–
Cc1cccc(N(C(=O)CNC(=O)c2ccco2)C(C(=O)NCC2CCCO2)c2ccccc2)c1 (centres undefined)	inconclusive: 8.2 µM [rising, partial curve, poor fit]	–
O=C(NNC(=S)NC(=O)c1ccccc1)c1ccc(O)cc1	inconclusive: 23.1 µM [cytotoxic, single point]	–
Cc1ccccc1CN1CCN(C(=O)c2cc(-c3ccncc3)nc3ccccc23)CC1	inactive	–
CN(Cc1cccc(F)c1)C(=O)c1ccc(NS(=O)(=O)c2ccc3[nH]c(=O)[nH]c3c2)cc1	inconclusive: 29.1 µM [rising, single point]	–
CC(=O)O/N=C/c1c(C)c(C=O)n2ccccc12	inconclusive: 2.31 µM [rising, full curve]	–
O=c1[nH]c2ccccc2cc1CN(Cc1ccco1)S(=O)(=O)c1ccccc1	inconclusive: 16.4 µM [cytotoxic, single point]	–
CC(OC(=O)C1CC(=O)N(Cc2ccco2)C1)C(=O)Nc1cccc(C#N)c1 (centres undefined)	inactive	–
COc1cc(C(C)=O)ccc1OCC(=O)Nc1ccc(C)c(S(=O)(=O)N2CCCCCC2)c1	inactive	–
COc1cccc(-c2cnc3c(NC=O)cc(-c4cc(OC)c(OC)c(OC)c4)cn23)c1	inactive	–
CNc1oc(-c2ccccc2Cl)nc1C#N	inconclusive: 29.1 µM [cytotoxic, single point]	–
O=C(Nc1ccncc1)c1ccc(-c2ccccc2)cc1	active: 23.1 µM	–
COc1ccccc1-c1cc(C(F)(F)F)nc(S(=O)(=O)CCCC(=O)N2CCOCC2)n1	active: 16.4 µM	–
CC(Sc1nn(-c2ccc(Cl)cc2)c(=S)s1)C(=O)NCC1CCCO1 (centres undefined)	inconclusive: 32.6 µM [cytotoxic, partial curve, poor fit]	–
CC1(C)SC2C(C(=O)O)N=C(Cc3ccccc3)N2C1C(=O)O (centres undefined)	inconclusive: 18.4 µM [rising, single point]	–
COc1ccc(-c2coc3cc4oc(=O)cc(-c5ccccc5)c4cc23)cc1F	active: 2.91 µM	–
CCCCCC(=O)N1C[C@@H](O)[C@H](n2cc(-c3ccc(F)cc3)nn2)C[C@@H]1c1ccc(Cl)cc1	inconclusive: 29.1 µM [cytotoxic, single point]	–
O=C(O)c1ccc(CNCc2ccc(Cl)cc2)s1	inactive	–

SMILES	Potency	activity change, negative = cytotoxic
COc1ccc(/C=N/NC(=O)c2cccnc2)cc1CSc1ccccn1	inconclusive: 29.1 µM [cytotoxic, single point]	–
CCCOc1ccccc1C1CC(=O)Nc2cc3c(cc21)OCO3 (centres undefined)	active: 2.59 µM	–
Cn1c2ccccc2c(=O)c2c(=O)n(C3CCCCC3)c(-c3ccco3)nc21	inconclusive: 18.4 µM [cytotoxic, single point]	–
CCc1nc2ccc(C(=O)Nc3ccc(OC)c(OC)c3)cn2c1N(CC)Cc1cccc(Br)c1	inconclusive: 29.1 µM [cytotoxic, single point]	–
COc1ccc(NC(=O)c2cc3c(-c4ccc(OC)c(OC)c4)nn(C)c3s2)cc1OC	inconclusive: 29.1 µM [cytotoxic, single point]	–
COc1ccc(/C=C/C(=O)c2ccc3c(c2)OCCO3)cc1[N+](=O)[O-]	inconclusive: 29.1 µM [cytotoxic, single point]	–
O=c1c2ccccc2oc2ncccc12	inconclusive: 0.206 µM [rising, full curve]	–
CC(=O)c1cccc(NC(=O)/C=C/c2ccc([N+](=O)[O-])s2)c1	inconclusive: 18.4 µM [cytotoxic, single point]	–
CCOC(=O)c1c(NC(=O)CSc2c[nH]c3ccccc23)sc2c1CCC2	inconclusive: 29.1 µM [cytotoxic, single point]	–
O=C(O)C1Cc2ccccc2CN1C(=O)CCl (centres undefined)	inconclusive: 18.4 µM [cytotoxic, single point]	–
CN(CC(=O)Nc1ccc(F)cc1)C(=O)CCc1nc2ccccc2c(=O)[nH]1	inactive	–
c1ccc(CNCCCNCCCCNCCCNCc2ccccc2)cc1	inconclusive: 29.1 µM [cytotoxic, single point]	–
O=[N+]([O-])c1cc(/C=N/O)ccc1Oc1cccc(Cl)c1	inactive	–
COc1cccc(NC(=O)C2CCN(S(=O)(=O)c3ccc(N4CCCC4=O)cc3)CC2)c1	inconclusive: 32.6 µM [cytotoxic, single point]	–
O=c1c2ccccc2nc2c3ccccc3c3nncn3n12	inconclusive: 16.4 µM [cytotoxic, partial curve, poor fit]	–
Cc1ccc(C2(C)NC(=O)N(CC(=O)Nc3nc(-c4ccccn4)cs3)C2=O)cc1 (centres undefined)	inconclusive: 29.1 µM [cytotoxic, single point]	–
O=C(COC(=O)Cc1ccc(F)cc1)NC(=O)NC1CCCC1	inconclusive: 8.2 µM [rising, partial curve]	–
O=C(CNC(=O)c1ccccc1)OCN1C(=O)c2ccccc2C1=O	inconclusive: 5.8 µM [cytotoxic, full curve]	–
COc1ccc(OC)c(N=C(C)C2=C(O)COC2=O)c1	inconclusive: 20.6 µM [cytotoxic, single point]	–
CC[C@H](C)[C@@H]1NC(=O)[C@@H](CC(C)C)NC(=O)[C@H](C(C)C)NC(=O)[C@H]2CSSC[C@H](NC1=O)C(=O)N2	active: 1.16 µM	–
COCc1c(C(=O)OC/C(O)=C(\C#N)c2nc3ccccc3[nH]2)oc2ccccc12	inactive	–
CC(C)Cn1c(N)c(S(=O)(=O)c2cccs2)c2nc3ccccc3nc21	inconclusive: 23.1 µM [cytotoxic, single point]	–
O=C(CNc1cccc2ccccc12)N/N=C/c1cccc(Oc2ccccc2)c1	inactive	–

SMILES	Potency	activity change, negative = cytotoxic
O=C(COc1ccccc1-c1ccccc1)NCc1ccco1	–	inconclusive: 4.49%
CC(C)CCC(O)(c1ccccc1)C(CN1CCOCC1)c1ccccc1 (centres undefined)	inconclusive: 11.6 µM [cytotoxic, partial curve, poor fit]	–
NC(=O)c1nsc(C(=O)N(CC(=O)NCc2ccc(F)cc2)Cc2ccco2)c1N	inconclusive: 23.1 µM [cytotoxic, single point]	–
Cc1nc(-c2ccccc2)nc2[nH]ccc(=O)c12	inconclusive: 20.6 µM [cytotoxic, partial curve, poor fit]	–
Cc1cc(C)cc(OCCN2CCOCC2)c1	inactive	–
Cn1c(=S)oc2ccccc21	inactive	–
S=C(NCCCN1CCOCC1)N1CCN(c2nc(-c3ccc(Cl)cc3)cs2)CC1	inconclusive: 25.9 µM [cytotoxic, partial curve, poor fit]	–
O=C(N/N=C/c1ccccn1)c1cc(-c2ccc(Cl)cc2)nc2ccccc12	inconclusive: 29.1 µM [cytotoxic, single point]	–
CCN(CC)S(=O)(=O)c1ccc(N(C)C)c(NC(=O)C2CCCC2)c1	inconclusive: 29.1 µM [cytotoxic, partial curve, poor fit]	–
O=C(Nc1nccs1)c1ccc(Br)c(S(=O)(=O)N2CCCC2)c1	inconclusive: 29.1 µM [cytotoxic, single point]	–
COC(=O)CSc1nc(N)nc(C)c1Cl	inconclusive: 29.1 µM [rising, single point]	–
CCc1ccc(N2C=C(C(=O)OC)C(c3ccc(OC)cc3)C(C#N)=C2N)cc1 (centres undefined)	inconclusive: 29.1 µM [cytotoxic, single point]	–
CC1=CN2C(c3cccc([N+](=O)[O-])c3)=NON(c3ccc(C)cn3)C2C=C1 (centres undefined)	inactive	–
CCOC(=O)c1ccccc1NC(=O)c1cccc2c1C(=O)N(C1CCN(C(=O)OCC)CC1)C2	–	inconclusive: -1.68%
COc1cccc(C(=O)Nc2nc(-c3nnn(-c4ccccc4C(F)(F)F)c3C)ns2)c1	inconclusive: 8.2 µM [cytotoxic, partial curve, poor fit]	–
Cc1c(Cl)ccc2sc(N3CCN(C(=O)CCS(=O)(=O)c4ccc(F)cc4)CC3)nc12	inconclusive: 9.2 µM [cytotoxic, partial curve]	–
COc1ccc(-c2nc3ccccc3n2Cc2ccccc2)cc1	inactive	–
CCCCCOc1ccc(NC(=O)Cn2c(-c3nonc3N)nc3ccccc32)cc1	inactive	–
CCC1=NN(C(=O)c2ccc(C)cc2)C(O)(c2ccc(Br)cc2)C1 (centres undefined)	inactive	–
CC1(C(=O)Nc2ccc3c(c2)OCCO3)CCN1C(=O)C1(c2ccc(Cl)cc2)CC1 (centres undefined)	inactive	–
Cc1ccc2c(c1)C(c1ccccc1)N(C(=O)COc1ccc(Cl)cc1Cl)CC(=O)N2 (centres undefined)	inconclusive: 18.4 µM [cytotoxic, single point]	–
CC1=C(C(=O)Nc2ccccc2)C(c2ccccn2)n2nc(SCc3ccccc3)nc2N1 (centres undefined)	inactive	–
CC(/C=N/n1c(-c2ccccn2)n[nH]c1=S)=C\c1ccccc1	inconclusive: 25.9 µM [rising, partial curve, poor fit]	–
